According to paper PMC9588786:
These are yes or no findings as the source states them, for the method shown. In cells and extracts the contact can be indirect.

By UniProt entry, the sequences of proteins in these tests, tags left out.
UniProt P06730: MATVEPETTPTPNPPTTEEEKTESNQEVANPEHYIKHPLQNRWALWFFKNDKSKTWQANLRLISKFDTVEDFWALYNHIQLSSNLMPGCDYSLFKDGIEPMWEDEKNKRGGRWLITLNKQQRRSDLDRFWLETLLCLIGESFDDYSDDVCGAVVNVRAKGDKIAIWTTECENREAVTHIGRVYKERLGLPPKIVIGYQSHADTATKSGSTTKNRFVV
UniProt P51648: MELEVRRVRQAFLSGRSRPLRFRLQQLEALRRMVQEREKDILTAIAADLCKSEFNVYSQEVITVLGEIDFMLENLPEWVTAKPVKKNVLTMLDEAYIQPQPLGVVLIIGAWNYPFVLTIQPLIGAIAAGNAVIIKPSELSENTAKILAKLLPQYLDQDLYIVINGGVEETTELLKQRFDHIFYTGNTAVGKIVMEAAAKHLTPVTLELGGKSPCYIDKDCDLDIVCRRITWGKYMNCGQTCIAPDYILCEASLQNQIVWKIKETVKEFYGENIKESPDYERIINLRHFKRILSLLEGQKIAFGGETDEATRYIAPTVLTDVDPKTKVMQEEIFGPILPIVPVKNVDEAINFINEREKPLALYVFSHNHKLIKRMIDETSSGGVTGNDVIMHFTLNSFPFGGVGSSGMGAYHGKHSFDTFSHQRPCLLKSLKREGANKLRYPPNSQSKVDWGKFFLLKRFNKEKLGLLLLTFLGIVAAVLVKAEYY

Biological target: eukaryotic initiation factor 4E (EIF4E) (human (endogenous in HT-1080 and Calu-1)) (UniProt P06730)
Assay: co-IP; anti-EIF4E antibody (clone 5D11) with protein A agarose beads on cleared RIPA lysates of HT-1080 or Calu-1 cells, 4 °C, immunoblot of partners; cells untreated or treated with RSL3, 4EGI-1, 4E1RCat, deferoxamine, 20% FBS, staurosporine, or with EIF4G1 knock-down

Substance: aldehyde dehydrogenase 3 family member A2 (ALDH3A2) (from UniProt P51648 1-485) (enzyme)
- binding: no binding
